In PubChem BioAssay AID2551 (National Center for Advancing Translational Sciences (NCATS), 2010):
The whole screen tested about 310,000 compounds, of which about 17,000 (5.5%) were called active. This list was built around the results that the source calls inconclusive (neither active nor inactive); the mix of calls is not that of the screen. The call rests on the fitted dose curve; in most records, active means well fitted inhibition curve with a large enough effect; inconclusive means small, poorly fitted or top-dose-only effect, or effect the other way; inactive means no such curve, though single readings can be large or run the other way. A potency beside an inconclusive call is a rough fit, not a confirmed value.

The chains behind the UniProt entries cited, without tags or fusion partners. Where a name states a change or a piece, a line headed by the entry shows the natural chain unless it says otherwise.
UniProt P51450: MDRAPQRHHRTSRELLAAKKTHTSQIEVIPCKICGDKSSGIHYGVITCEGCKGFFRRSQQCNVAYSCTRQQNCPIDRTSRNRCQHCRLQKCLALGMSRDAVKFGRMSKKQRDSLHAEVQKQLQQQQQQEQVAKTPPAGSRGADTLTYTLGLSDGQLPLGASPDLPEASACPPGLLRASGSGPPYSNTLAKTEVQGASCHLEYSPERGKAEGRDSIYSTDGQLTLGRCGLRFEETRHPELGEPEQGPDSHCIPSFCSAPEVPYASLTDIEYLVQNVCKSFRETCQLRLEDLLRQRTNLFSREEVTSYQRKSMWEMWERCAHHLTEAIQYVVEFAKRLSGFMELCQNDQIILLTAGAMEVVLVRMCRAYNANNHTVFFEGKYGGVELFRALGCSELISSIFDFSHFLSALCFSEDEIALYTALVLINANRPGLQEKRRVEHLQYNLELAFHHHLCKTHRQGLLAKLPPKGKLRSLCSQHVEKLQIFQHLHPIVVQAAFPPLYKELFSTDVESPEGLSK

Target: Nuclear receptor ROR-gamma (Mus musculus) (UniProt P51450)
Assay: qHTS for inhibitors of ROR gamma transcriptional activity; further: nearly all actives have a fitted effect of over 60% in size
Conditions: Drosophila S2 Gal4-RORgamma UAS-luciferase reporter, 20 h; activity change, negative = inhibition: at 53.6 µM (top of the series)
Method in brief: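 Stably transfected Drosophila Schneider cells are the test system, with ROR gamma fused to Gal4 and luciferase under UAS control; luminescence is read after 20 hr of 700 uM copper sulfate induction at ambient temperature.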
On the % scale 0 is the no-effect control and ±100 the full control effect; potency means the concentration at half of the fitted maximal effect.

| SMILES | Potency | activity change, negative = inhibition |
| --- | --- | --- |
| CCC(=O)N1c2ccc(S(=O)(=O)NCc3ccccc3)cc2CC1C (stereo not drawn) | inconclusive: 15.8 µM [activator, partial curve] |  |
| O=C(NC(=S)Nc1cccc(Cl)c1N1CCOCC1)c1cccs1 | active: 3.16 µM |  |
| CCn1cc(C2=NC(c3ccccc3)CO2)c2ccccc21 (stereo not drawn) | active: 10 µM |  |
| O=C(Cc1cn(-c2ccccc2)nc1-c1ccccc1)N1CCCCC1 | inconclusive: 7.08 µM [inhibitor, partial curve, poor fit] |  |
| Cc1ccccc1OCC(=O)Nc1cc(Cl)ccc1Oc1ccccc1 | inactive |  |
| N#Cc1c(NC(=S)NC(=O)c2ccccc2)sc2c1CCC2 |  | inactive: -41.8% [at 10 µM] |
| NNC(=O)c1cc(-c2ccc(N)cc2)nc2ccc(Br)cc12 | active: 10 µM |  |
| O=C(O)/C=C/c1ccc(O)c(O)c1 | inconclusive: 12.6 µM [activator, single point] |  |
| COc1ccc(CCNC(=O)c2cc(S(=O)(=O)N3CCC4(CC3)OCCO4)ccc2F)cc1OC | inactive |  |
| CCSc1ncc(/C=N/Nc2ccccc2)n1C | inconclusive: 22.4 µM [activator, single point] |  |
| COc1ccc2c(CC(=O)Nc3ccc(OC)c(S(=O)(=O)N4CCOCC4)c3)coc2c1 | inconclusive: 35.5 µM [activator, single point] |  |
| Cc1cc(C)n(-c2ccc(NC(=O)C3CCN(Cc4cc(C)c(C)o4)CC3)cc2)n1 | inactive |  |
| Cc1cc(C)c(NC(=O)/C(=C/c2ccccc2)c2ccccc2)c(C)c1 |  | inactive: -5.94% [at 10 µM] |
| N#C/C(=C\c1ccccc1)C(=O)OCC(=O)N1CCCC1 | inactive |  |
| O=C(Cn1cnc2ccccc21)Nc1ccc(F)c(F)c1 | inconclusive: 17.8 µM [activator, partial curve] |  |
| COc1cc(C2C3=C(CC(C)(C)CC3=O)N(C)C(=O)N2C)cc(OC)c1OC (stereo not drawn) | inconclusive: 1.26 µM [inhibitor, single point] |  |
| O=C(N/N=C/c1ccco1)c1cccc([N+](=O)[O-])c1 | inconclusive: 20 µM [inhibitor, single point] |  |
| COc1ccc(/C(C)=N/OCC(=O)N=Nc2c(O)[nH]c3ccc(Br)cc23)cc1 | inactive |  |
| Cn1c(=O)c2ccccc2n(CC(=O)N2CCCc3ccccc32)c1=O | inactive |  |
| COc1ccc(C2CC(C(F)(F)F)n3nc(C(=O)NCc4c(C)nn(C)c4C)c(Cl)c3N2)cc1 (stereo not drawn) | inactive |  |
| O=[N+]([O-])c1ccc(/C=C/C2=NN(c3ccccc3)C(c3ccco3)C2)cc1 (stereo not drawn) | inconclusive: 35.5 µM [inhibitor, single point] |  |
| O=C1C(=O)c2ccccc2C(O)=C1CCCCl | inconclusive: 28.2 µM [inhibitor, single point] |  |
| CCOc1ccc(NS(=O)(=O)c2ccc3ncsc3c2)cc1 | inactive |  |
| CCOC(=O)/C(=C\c1cn(C)c2ccccc12)[N+](=O)[O-] | inconclusive: 2.82 µM [inhibitor, partial curve] |  |

Grouped by structure: the entries above with nitrogen in an aromatic ring (11)

| SMILES | Potency | activity change, negative = inhibition |
| --- | --- | --- |
| CCn1cc(C2=NC(c3ccccc3)CO2)c2ccccc21 (stereo not drawn) | active: 10 µM |  |
| O=C(Cc1cn(-c2ccccc2)nc1-c1ccccc1)N1CCCCC1 | inconclusive: 7.08 µM [inhibitor, partial curve, poor fit] |  |
| NNC(=O)c1cc(-c2ccc(N)cc2)nc2ccc(Br)cc12 | active: 10 µM |  |
| CCSc1ncc(/C=N/Nc2ccccc2)n1C | inconclusive: 22.4 µM [activator, single point] |  |
| Cc1cc(C)n(-c2ccc(NC(=O)C3CCN(Cc4cc(C)c(C)o4)CC3)cc2)n1 | inactive |  |
| O=C(Cn1cnc2ccccc21)Nc1ccc(F)c(F)c1 | inconclusive: 17.8 µM [activator, partial curve] |  |
| COc1ccc(/C(C)=N/OCC(=O)N=Nc2c(O)[nH]c3ccc(Br)cc23)cc1 | inactive |  |
| Cn1c(=O)c2ccccc2n(CC(=O)N2CCCc3ccccc32)c1=O | inactive |  |
| COc1ccc(C2CC(C(F)(F)F)n3nc(C(=O)NCc4c(C)nn(C)c4C)c(Cl)c3N2)cc1 (stereo not drawn) | inactive |  |
| CCOc1ccc(NS(=O)(=O)c2ccc3ncsc3c2)cc1 | inactive |  |
| CCOC(=O)/C(=C\c1cn(C)c2ccccc12)[N+](=O)[O-] | inconclusive: 2.82 µM [inhibitor, partial curve] |  |

Two consecutive compounds from above:

| SMILES | Potency | activity change, negative = inhibition |
| --- | --- | --- |
| CCSc1ncc(/C=N/Nc2ccccc2)n1C | inconclusive: 22.4 µM [activator, single point] |  |
| COc1ccc2c(CC(=O)Nc3ccc(OC)c(S(=O)(=O)N4CCOCC4)c3)coc2c1 | inconclusive: 35.5 µM [activator, single point] |  |

Next part:

| SMILES | Potency | activity change, negative = inhibition |
| --- | --- | --- |
| COc1cccc(Cn2cnc3c(NS(=O)(=O)c4ccc(Cl)cc4Cl)c(C)c(C)cc32)c1 | inconclusive: 10 µM [inhibitor, partial curve] |  |
| COc1ccc(NC(=S)NNc2ccc(C(=O)O)cc2)cc1 | inconclusive: 22.4 µM [inhibitor, partial curve, poor fit] |  |
| COc1ccccc1/C=C/c1nc2ccc(OC(C)=O)cc2c(=O)o1 | inconclusive: 2.82 µM [inhibitor, full curve] |  |
| CN1/C(=C\C(=S)NC(=O)c2cccc(Br)c2)C(C)(C)c2ccccc21 | inconclusive: 0.708 µM [activator, full curve] |  |
| CSCCC(Nc1ccc(S(=O)(=O)N2CCOCC2)cc1[N+](=O)[O-])C(=O)OCC(=O)N(C(C)C)C(C)C (stereo not drawn) | inconclusive: 31.6 µM [activator, single point] |  |
| CC(=O)Nc1ccc(NC(=O)c2cc(=O)c3ccccc3o2)cc1 | inconclusive: 3.55 µM [activator, single point] |  |
| O=C(NC(=S)Nc1ccc(S(=O)(=O)N2CCCC2)cc1)C1CC1 | active: 10 µM |  |
| Cc1ccc(-c2cccc(C3CC=CC4C3C(=O)N(Cc3ccccc3)C4c3ccc(C(F)(F)F)cc3)c2)cc1 (stereo not drawn) | inactive |  |
| COc1ccc(Cc2nc3ccc(C(=O)N(C)CCO)cc3o2)cc1 | inconclusive: 3.16 µM [inhibitor, single point] |  |
| Cc1ccc(CN(C(=O)c2cc3ccccc3oc2=O)C2CCS(=O)(=O)C2)cc1 (stereo not drawn) | inconclusive: 1.58 µM [activator, full curve, poor fit] |  |
| O=C(Nc1ccccc1N1CCCCC1)c1ccc(-c2cccc(Cl)c2)o1 | inactive |  |
| Cc1cc(N2Cc3ccccc3C2)ccc1C=O | inconclusive: 0.1 µM [inhibitor, full curve, poor fit] |  |
| Cc1nc2ccc(NC(=O)c3ccc(Cl)c(NC(=O)c4cccs4)c3)cc2s1 | inactive |  |
| O=C1N/C(=N\c2ccccn2)SC1Cc1ccc(Cl)cc1 (stereo not drawn) | active: 2 µM |  |
| Cc1ccc(NC(=O)Cn2c(O)c(N=NC(=O)c3cc4ccccc4cc3O)c3ccccc32)cc1 | inconclusive: 5.01 µM [inhibitor, single point] |  |
| Cc1cccc(Oc2ccccc2N)c1 | inconclusive: 5.62 µM [inhibitor, single point] |  |
| CCSc1nnc(NC(=O)c2c(-c3ccccc3Cl)noc2C)s1 | inconclusive: 25.1 µM [inhibitor, single point] |  |
| COc1cc(C(=O)Nc2nnc(C3=COCCO3)o2)cc(OC)c1OC | active: 2.51 µM |  |
| O=C(CSc1nc2ccccc2[nH]1)NC1CCS(=O)(=O)C1 (stereo not drawn) | inactive |  |
| Cc1cc(C)cc(N=Cc2ccc([N+](=O)[O-])s2)c1 | inconclusive: 35.5 µM [inhibitor, single point] |  |
| Nc1nnc(Sc2ccc(Cl)cc2[N+](=O)[O-])s1 | inconclusive: 3.55 µM [inhibitor, single point] |  |
| O=C(Cn1nnc2ccccc21)Nc1ccc(Cl)cn1 | inactive |  |
| CC1CN(Cc2ccc(Cl)cc2Cl)CC(C)O1 (stereo not drawn) | inactive |  |
| Cc1cc(NC(=O)NCc2ccccc2)c(=O)n(Cc2ccccc2F)c1 | inconclusive: 35.5 µM [activator, single point] |  |
